Data source: PubChem BioAssay AID743454 (Peter MacCallum Cancer Centre, 2014)
In all, the deposit lists about 18,000 reagents; shown is a part drawn at random. 450 of all reagents (2.5%) count as active. 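Single biological run; no consistent viability z cut-off exists, so the class columns, not z-scores, define the calls.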 Reagent sequences are not shown.

Aim: 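Genes whose loss kills vorinostat-resistant colon cancer cells under vorinostat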 (primary screen)
System: human HCT116-VR colon cancer cells, selected for vorinostat resistance
Knock-down reagent: siRNA pool against human genes, 40 nM siRNA pool
Time to read-out: vorinostat for 24 h, read-out about 72 h after transfection
Challenge: vorinostat at 2.5 µM final
Read-out: 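Two measures, CellTiter-Fluor viability and luminescent caspase 3/7 activity, each as fold change against same-plate mock wells, mean of duplicates, then screen-wide robust z-score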
Reading the numbers: viability robust z-score: higher = more viable cells than screen typical; caspase robust z-score: higher = more caspase 3/7 activity than screen typical
Rule for the call: 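a knock-down is a hit when classed RV1 or RV2 for lowered viability, or CA1 or CA2 for caspase activation; those lethal without drug were dropped; hits were retested singly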

gene	viability hit class	caspase hit class	viability robust z-score	caspase robust z-score	outcome
ECM2	no change	no change	-0.26	-0.45	inactive
PCBP3	no change	no change	-2.24	2.51	inactive
MTF2	no change	CA2 (caspase activation)	-4.11	8.29	active
NCKAP5	no change	no change	0.46	1.35	inactive
DENND1C	no change	no change	-1.29	-0.8	inactive
CPE	no change	no change	0.58	-0.66	inactive
FXYD1	no change	no change	-0.2	1.13	inactive
CCDC127	no change	no change	1.17	-0.34	inactive
EMC3	no change	no change	-0.32	0.22	inactive
BLMH	no change	no change	-0.16	-0.7	inactive
KERA	no change	no change	-1.05	1.23	inactive
SPTA1	no change	no change	-1.62	2.88	inactive
CIZ1	no change	no change	-0.48	0.47	inactive
RAB40B	no change	no change	-0.39	3.23	inactive
VIPR1	no change	no change	0.15	-0.16	inactive
CCSER1	no change	no change	0.4	0.32	inactive
ACTG1	no change	no change	0.34	-0.83	inactive
MSS51	no change	CA1 (caspase activation)	-0.4	5.65	active
RFPL4A	no change	no change	-0.05	1.84	inactive
HELZ	no change	no change	0.32	0.93	inactive
CDC6	no change	no change	-2.53	1.42	inactive
MTSS2	no change	no change	-0.34	-0.02	inactive
COPS6	no change	no change	-0.65	4.09	inactive
FAM163A	no change	no change	-0.81	-0.72	inactive
HOOK3	no change	no change	1.06	0.35	inactive
PDPN	no change	no change	1.36	0.42	inactive
HSD17B14	no change	no change	-0.68	4.04	inactive
ZNF765	no change	no change	-0.36	0.44	inactive
ISOC1	no change	no change	1.63	-0.29	inactive
LCE4A	no change	no change	0.64	0.57	inactive
PPP1R27	no change	no change	0.66	-0.35	inactive
CKM	no change	no change	-2.04	1.48	inactive
ITPR2	no change	no change	-1.16	0.26	inactive
C11orf58	no change	no change	0.07	-0.54	inactive
MAST1	no change	no change	2.64	0.03	inactive
RMI2	no change	no change	0.12	-0.75	inactive
FAN1	no change	no change	0.59	-0.88	inactive
UTP20	no change	no change	-0.4	-0.87	inactive
RAB8A	no change	no change	-0.28	2.36	inactive

A few values from the list.
HOOK3, caspase hit class: no change
Result for BLMH under “viability robust z-score”: -0.16
